PubChem BioAssay AID1508597, Cure First | 2020
Shown is a random part of about 2,100 deposited reagents. 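Calls flag viability under 80% in either arm, not effects specific to rucaparib; the reference for percent is not stated.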 Unmarked entries are inactive. Reagents against one gene are numbered here. The record does not give: the 100% reference.

- Aim: 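Genes whose silencing sensitises or protects ovarian cancer cells against rucaparib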 (primary screen)
- System: human ovarian carcinoma lines grown from tumours: OCI-P5x (papillary serous) and OCI-C5x (clear cell)
- Reagents: siRNA pool against human genes, 1.25 pmol siRNA per well
- Timing: 72 h or 96 h, depending on the cell culture
- Treatment: rucaparib 20 µM (about IC30) or vehicle, present until read-out
- Detection: 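ATP luminescence measured at 72 or 96 h according to the culture, then normalised and expressed as percent viability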
- Reading the numbers: viability, normalised: higher = more viable cells remaining
- Hit rule: 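Active when normalised viability falls below 80 percent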
- Calls: active = viability under 80%; inactive = viability 80% or more

AK7 (adenylate kinase 7), rucaparib or vehicle Rucaparib, cell line OCI-C5x (clear cell), technical replicate 1 scored viability, normalised (%) = 65.6 (active). AK7 (adenylate kinase 7), rucaparib or vehicle Rucaparib, cell line OCI-C5x (clear cell), technical replicate 2 scored viability, normalised (%) = 74.2 (active). AK7 (adenylate kinase 7), rucaparib or vehicle Rucaparib, cell line OCI-C5x (clear cell), technical replicate 3 showed viability, normalised (%) = 50.9 (active). AK7 (adenylate kinase 7), rucaparib or vehicle Rucaparib, cell line OCI-P5x (serous), technical replicate 1 scored viability, normalised (%) = 84.9. AK7 (adenylate kinase 7), rucaparib or vehicle Rucaparib, cell line OCI-P5x (serous), technical replicate 2 showed viability, normalised (%) = 87.4. AK7 (adenylate kinase 7), rucaparib or vehicle Rucaparib, cell line OCI-P5x (serous), technical replicate 3 gave viability, normalised (%) = 59.6 (active).

AK7 (adenylate kinase 7), rucaparib or vehicle Vehicle, cell line OCI-C5x (clear cell), technical replicate 1 showed viability, normalised (%) = 51.5 (active). With AK7 (adenylate kinase 7), rucaparib or vehicle Vehicle, cell line OCI-C5x (clear cell), technical replicate 2, the values are viability, normalised (%) = 54.2 (active). AK7 (adenylate kinase 7), rucaparib or vehicle Vehicle, cell line OCI-C5x (clear cell), technical replicate 3 showed viability, normalised (%) = 44 (active). AK7 (adenylate kinase 7), rucaparib or vehicle Vehicle, cell line OCI-P5x (serous), technical replicate 1 showed viability, normalised (%) = 67.8 (active). For AK7 (adenylate kinase 7), rucaparib or vehicle Vehicle, cell line OCI-P5x (serous), technical replicate 2, the values are viability, normalised (%) = 58.4 (active). AK7 (adenylate kinase 7), rucaparib or vehicle Vehicle, cell line OCI-P5x (serous), technical replicate 3 scored viability, normalised (%) = 57.9 (active).

For CLCF1 (cardiotrophin like cytokine factor 1), rucaparib or vehicle Rucaparib, cell line OCI-C5x (clear cell), technical replicate 1 the deposit lists viability, normalised (%) = 52.1 (active). For CLCF1 (cardiotrophin like cytokine factor 1), rucaparib or vehicle Rucaparib, cell line OCI-C5x (clear cell), technical replicate 2 the deposit lists viability, normalised (%) = 60.9 (active). With CLCF1 (cardiotrophin like cytokine factor 1), rucaparib or vehicle Rucaparib, cell line OCI-C5x (clear cell), technical replicate 3, the values are viability, normalised (%) = 51.6 (active). CLCF1 (cardiotrophin like cytokine factor 1), rucaparib or vehicle Rucaparib, cell line OCI-P5x (serous), technical replicate 1 showed viability, normalised (%) = 66.3 (active). For CLCF1 (cardiotrophin like cytokine factor 1), rucaparib or vehicle Rucaparib, cell line OCI-P5x (serous), technical replicate 2 the deposit lists viability, normalised (%) = 67 (active). For CLCF1 (cardiotrophin like cytokine factor 1), rucaparib or vehicle Rucaparib, cell line OCI-P5x (serous), technical replicate 3, the entry reads viability, normalised (%) = 73.7 (active).

With CLCF1 (cardiotrophin like cytokine factor 1), rucaparib or vehicle Vehicle, cell line OCI-C5x (clear cell), technical replicate 1 the deposit lists viability, normalised (%) = 27.1 (active). With CLCF1 (cardiotrophin like cytokine factor 1), rucaparib or vehicle Vehicle, cell line OCI-C5x (clear cell), technical replicate 2, the entry reads viability, normalised (%) = 45.6 (active). For CLCF1 (cardiotrophin like cytokine factor 1), rucaparib or vehicle Vehicle, cell line OCI-C5x (clear cell), technical replicate 3, the values are viability, normalised (%) = 42.1 (active). CLCF1 (cardiotrophin like cytokine factor 1), rucaparib or vehicle Vehicle, cell line OCI-P5x (serous), technical replicate 1 gave viability, normalised (%) = 57.1 (active). For CLCF1 (cardiotrophin like cytokine factor 1), rucaparib or vehicle Vehicle, cell line OCI-P5x (serous), technical replicate 2 the deposit lists viability, normalised (%) = 48.3 (active). CLCF1 (cardiotrophin like cytokine factor 1), rucaparib or vehicle Vehicle, cell line OCI-P5x (serous), technical replicate 3 gave viability, normalised (%) = 74.7 (active).

With RAD51D (RAD51 paralog D) #1, rucaparib or vehicle Rucaparib, cell line OCI-C5x (clear cell), technical replicate 1, the entry reads viability, normalised (%) = 46.8 (active). With RAD51D (RAD51 paralog D) #1, rucaparib or vehicle Rucaparib, cell line OCI-C5x (clear cell), technical replicate 2, the entry reads viability, normalised (%) = 50.1 (active). RAD51D (RAD51 paralog D) #1, rucaparib or vehicle Rucaparib, cell line OCI-C5x (clear cell), technical replicate 3 gave viability, normalised (%) = 61.1 (active). RAD51D (RAD51 paralog D) #1, rucaparib or vehicle Rucaparib, cell line OCI-P5x (serous), technical replicate 1 scored viability, normalised (%) = 51.5 (active). For RAD51D (RAD51 paralog D) #1, rucaparib or vehicle Rucaparib, cell line OCI-P5x (serous), technical replicate 2, the entry reads viability, normalised (%) = 49.1 (active). RAD51D (RAD51 paralog D) #1, rucaparib or vehicle Rucaparib, cell line OCI-P5x (serous), technical replicate 3 gave viability, normalised (%) = 51.2 (active).

With RAD51D (RAD51 paralog D) #1, rucaparib or vehicle Vehicle, cell line OCI-C5x (clear cell), technical replicate 1, the entry reads viability, normalised (%) = 61.3 (active). For RAD51D (RAD51 paralog D) #1, rucaparib or vehicle Vehicle, cell line OCI-C5x (clear cell), technical replicate 2, the entry reads viability, normalised (%) = 60.4 (active). For RAD51D (RAD51 paralog D) #1, rucaparib or vehicle Vehicle, cell line OCI-C5x (clear cell), technical replicate 3, the entry reads viability, normalised (%) = 56.1 (active). RAD51D (RAD51 paralog D) #1, rucaparib or vehicle Vehicle, cell line OCI-P5x (serous), technical replicate 1 showed viability, normalised (%) = 31.3 (active). With RAD51D (RAD51 paralog D) #1, rucaparib or vehicle Vehicle, cell line OCI-P5x (serous), technical replicate 2 the deposit lists viability, normalised (%) = 66.1 (active). RAD51D (RAD51 paralog D) #1, rucaparib or vehicle Vehicle, cell line OCI-P5x (serous), technical replicate 3 showed viability, normalised (%) = 74.2 (active).

RAD51D (RAD51 paralog D) #2, rucaparib or vehicle Rucaparib, cell line OCI-C5x (clear cell), technical replicate 1 gave viability, normalised (%) = 54.2 (active). RAD51D (RAD51 paralog D) #2, rucaparib or vehicle Rucaparib, cell line OCI-C5x (clear cell), technical replicate 2 gave viability, normalised (%) = 75.1 (active). With RAD51D (RAD51 paralog D) #2, rucaparib or vehicle Rucaparib, cell line OCI-C5x (clear cell), technical replicate 3, the entry reads viability, normalised (%) = 60.9 (active). RAD51D (RAD51 paralog D) #2, rucaparib or vehicle Rucaparib, cell line OCI-P5x (serous), technical replicate 1 showed viability, normalised (%) = 88. RAD51D (RAD51 paralog D) #2, rucaparib or vehicle Rucaparib, cell line OCI-P5x (serous), technical replicate 2 gave viability, normalised (%) = 105. For RAD51D (RAD51 paralog D) #2, rucaparib or vehicle Rucaparib, cell line OCI-P5x (serous), technical replicate 3, the values are viability, normalised (%) = 84.7.

RAD51D (RAD51 paralog D) #2, rucaparib or vehicle Vehicle, cell line OCI-C5x (clear cell), technical replicate 1 scored viability, normalised (%) = 60.9 (active). RAD51D (RAD51 paralog D) #2, rucaparib or vehicle Vehicle, cell line OCI-C5x (clear cell), technical replicate 2 scored viability, normalised (%) = 46.4 (active). With RAD51D (RAD51 paralog D) #2, rucaparib or vehicle Vehicle, cell line OCI-C5x (clear cell), technical replicate 3, the values are viability, normalised (%) = 56.8 (active). For RAD51D (RAD51 paralog D) #2, rucaparib or vehicle Vehicle, cell line OCI-P5x (serous), technical replicate 1 the deposit lists viability, normalised (%) = 44.3 (active). With RAD51D (RAD51 paralog D) #2, rucaparib or vehicle Vehicle, cell line OCI-P5x (serous), technical replicate 2 the deposit lists viability, normalised (%) = 65.5 (active). With RAD51D (RAD51 paralog D) #2, rucaparib or vehicle Vehicle, cell line OCI-P5x (serous), technical replicate 3 the deposit lists viability, normalised (%) = 56.3 (active).

Laid out differently: entries from further up
AK7 (adenylate kinase 7), rucaparib or vehicle Vehicle, cell line OCI-C5x (clear cell), technical replicate 1
- viability, normalised (%): 51.5 (active)

AK7 (adenylate kinase 7), rucaparib or vehicle Vehicle, cell line OCI-C5x (clear cell), technical replicate 2
- viability, normalised (%): 54.2 (active)

AK7 (adenylate kinase 7), rucaparib or vehicle Vehicle, cell line OCI-C5x (clear cell), technical replicate 3
- viability, normalised (%): 44 (active)

AK7 (adenylate kinase 7), rucaparib or vehicle Vehicle, cell line OCI-P5x (serous), technical replicate 1
- viability, normalised (%): 67.8 (active)

AK7 (adenylate kinase 7), rucaparib or vehicle Vehicle, cell line OCI-P5x (serous), technical replicate 2
- viability, normalised (%): 58.4 (active)

AK7 (adenylate kinase 7), rucaparib or vehicle Vehicle, cell line OCI-P5x (serous), technical replicate 3
- viability, normalised (%): 57.9 (active)

CLCF1 (cardiotrophin like cytokine factor 1), rucaparib or vehicle Rucaparib, cell line OCI-C5x (clear cell), technical replicate 1
- viability, normalised (%): 52.1 (active)

CLCF1 (cardiotrophin like cytokine factor 1), rucaparib or vehicle Rucaparib, cell line OCI-C5x (clear cell), technical replicate 2
- viability, normalised (%): 60.9 (active)
